Results: patent US4889860A (Nova Pharmaceutical Corporation, priority 1987, dated 1989)

Test system: writhing response
Assay type: in vivo, mouse
Conditions: Table 7

## CN1CC[C@]23c4c5ccc(O)c4O[C@H]2[C@@H](O)C=C[C@H]3[C@H]1C5 [Morphine, morphine, reference compound]
  ED50, Acetic Acid Induced Writhing in the Mouse: 0.50 mg/kg
